{"sequences": {"note": "Chains of the proteins cited; added tags and fusions are not shown.", "UniProt Q9BR76": "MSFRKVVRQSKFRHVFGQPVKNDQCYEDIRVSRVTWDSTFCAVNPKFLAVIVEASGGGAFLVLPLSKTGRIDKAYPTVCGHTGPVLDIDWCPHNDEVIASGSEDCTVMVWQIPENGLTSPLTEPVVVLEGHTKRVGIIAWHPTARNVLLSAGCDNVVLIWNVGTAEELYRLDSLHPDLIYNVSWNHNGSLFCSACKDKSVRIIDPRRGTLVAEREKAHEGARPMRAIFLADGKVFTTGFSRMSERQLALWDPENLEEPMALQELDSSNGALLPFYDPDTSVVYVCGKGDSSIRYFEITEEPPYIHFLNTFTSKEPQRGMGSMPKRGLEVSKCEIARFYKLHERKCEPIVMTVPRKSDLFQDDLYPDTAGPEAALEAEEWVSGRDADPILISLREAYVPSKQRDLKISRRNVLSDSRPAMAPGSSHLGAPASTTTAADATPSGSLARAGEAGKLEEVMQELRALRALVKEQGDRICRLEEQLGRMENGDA", "UniProt Q13418": "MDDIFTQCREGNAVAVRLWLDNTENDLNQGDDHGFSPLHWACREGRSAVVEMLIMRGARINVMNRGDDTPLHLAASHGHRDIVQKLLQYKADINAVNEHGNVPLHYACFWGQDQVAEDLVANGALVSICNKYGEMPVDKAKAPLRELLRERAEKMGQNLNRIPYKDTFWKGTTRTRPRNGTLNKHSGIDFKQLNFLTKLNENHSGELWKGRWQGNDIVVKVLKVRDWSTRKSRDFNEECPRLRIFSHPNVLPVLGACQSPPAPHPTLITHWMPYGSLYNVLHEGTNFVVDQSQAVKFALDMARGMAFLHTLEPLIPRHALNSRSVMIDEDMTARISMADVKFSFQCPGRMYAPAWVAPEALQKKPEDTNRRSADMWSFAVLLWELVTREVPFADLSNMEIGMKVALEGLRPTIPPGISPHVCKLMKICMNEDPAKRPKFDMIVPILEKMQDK"}, "source": "paper PMC7411154", "target": "Coronin 1B-GFP fusion protein (UniProt Q9BR76)", "assay": "co-IP; GFP-Trap beads with 2500 μg lysate of HMECs stably expressing Coro1B-GFP or GFP (control), 2 h at 4°C; lysis buffer with 150 mM sodium chloride, 1% Triton-X 100, 1% sodium deoxycholate; Western blot for Coro1B and ILK", "note": "These are yes or no findings as the source states them, for the method shown. In cells and extracts the contact can be indirect. Some binding calls cover weakened binding; strength is not graded here."}
{"substance": "integrin-linked kinase (ILK) (from UniProt Q13418 1-452)", "values": [{"measurement": "binding", "value": "binds"}]}
